Results from US8084429B2, “Compounds and their analgesic applications” (priority 2002, dated 2011).
Part of at least one peptide drawing is inferred or uncertain, most often the ends. Starred links: 1 amine or outer side, 2 acyl side, 3 side chain; linkers in the order of their positions; H or OH if unused. Positions of bridges follow the written chain, without caps; N, C: chain ends. Non-standard residues stand in square brackets, D forms with d. Residues, ends and D or L forms follow the SMILES beside them. Chains are numbered I, II in the order given. NHNH = N(N[*:2])[*:1]

Tested on: rat
Experiment: tail retraction test with thermal stimulus after intrathecal administration
Format: in vivo
[1] = 0.05 micrograms intrathecal, after 5 minutes
[2] = 0.05 micrograms intrathecal, after 15 minutes
[3] = 0.05 micrograms intrathecal, after 30 minutes
[4] = 0.05 micrograms intrathecal, after 1 hour

Row | Compound | anaesthetic effect [1] [% MPE] | anaesthetic effect [2] [% MPE] | anaesthetic effect [3] [%] | anaesthetic effect [4] [% MPE] | further results
1 | NC(=O)CC[C@@H](NC(=O)[C@@H](N)Cc1ccc(O)cc1)C(=O)NCC(=O)N[C@@H](Cc1ccccc1)C(=O)NNC(=O)[C@H](Cc1ccccc1)NC(=O)CNC(=O)[C@@H](CCC(N)=O)NC(=O)[C@@H](N)Cc1ccc(O)cc1 [(Tyr-D-Gln-Gly-Phe-NH—)2, (Tyr-D-Gln-Gly-Phe-NH-)2] (I: H-Y[dQ]GF / II: H-Y[dQ]GF; linker I:C-II:C via NHNH) | 100 | 68 | 50 | 18 | –
2 | CC(C)C[C@@H](NC(=O)[C@@H](N)Cc1ccc(O)cc1)C(=O)NCC(=O)N[C@@H](Cc1c[nH]c2ccccc12)C(=O)NNC(=O)[C@H](Cc1c[nH]c2ccccc12)NC(=O)CNC(=O)[C@@H](CC(C)C)NC(=O)[C@@H](N)Cc1ccc(O)cc1 [(Tyr-D-Leu-Gly-Trp-NH—)2, (Tyr-D-Leu-Gly-Trp-NH-)2] (I: H-Y[dL]GW / II: H-Y[dL]GW; linker I:C-II:C via NHNH) | 100 | 100 | 62 | 30 | –
3 | CSCC[C@@H](NC(=O)[C@@H](N)Cc1ccc(O)cc1)C(=O)NCC(=O)N[C@@H](Cc1ccccc1)C(=O)NNC(=O)[C@H](Cc1ccccc1)NC(=O)CNC(=O)[C@@H](CCSC)NC(=O)[C@@H](N)Cc1ccc(O)cc1 [(Tyr-D-Met-Gly-Phe-NH—)2, (Tyr-D-Met-Gly-Phe-NH-)2] (I: H-Y[dM]GF / II: H-Y[dM]GF; linker I:C-II:C via NHNH) | 100 | 98 | 80 | 42 | –
4 | C[C@H](O)[C@@H](NC(=O)[C@@H](N)Cc1ccc(O)cc1)C(=O)NCC(=O)N[C@@H](Cc1ccccc1)C(=O)NNC(=O)[C@H](Cc1ccccc1)NC(=O)CNC(=O)[C@H](NC(=O)[C@@H](N)Cc1ccc(O)cc1)[C@H](C)O [(Tyr-D-Thr-Gly-Phe-NH—)2, (Tyr-D-Thr-Gly-Phe-NH-)2] (I: H-Y[dT]GF / II: H-Y[dT]GF; linker I:C-II:C via NHNH) | 100 | 78 | 41 | 10 | –
5 | C[C@@H](NC(=O)[C@@H](N)Cc1ccc(O)cc1)C(=O)NCC(=O)N[C@@H](Cc1ccccc1)C(=O)NNC(=O)[C@H](Cc1ccccc1)NC(=O)CNC(=O)[C@@H](C)NC(=O)[C@@H](N)Cc1ccc(O)cc1 [biphaline, (Tyr-D-Ala-Gly-Phe-NH-)2] | – | – | – | – | anaesthetic effect (0.005 micrograms intrathecal, 5th minute): 68 % MPE; anaesthetic effect (0.005 micrograms intrathecal, 15th minute): 74 % MPE; anaesthetic effect (0.005 micrograms intrathecal, 30th minute): 30 % MPE; sensitivity to the thermal stimulus (0.005 micrograms intrathecal, after an hour): returned to normal; anaesthetic effect maintained throughout the experiment (0.005 micrograms, then 0.003 micrograms every half hour for 8 hours, intrathecal, measured in 1 hour intervals): 80 % MPE; anaesthetic effect (0.5 micrograms intrathecal, 5 minutes following administration): 90 % MPE; anaesthetic effect (0.5 micrograms intrathecal, 15 minutes following administration): 98 % MPE; anaesthetic effect (0.5 micrograms intrathecal, 30 minutes following administration): 100 % MPE; anaesthetic effect (0.5 micrograms intrathecal, 1 hour following administration): 70%; anaesthetic effect (0.5 micrograms intrathecal, two minutes following administration (so in the source)): 27 % MPE; pain response and behaviour (25 micrograms intrathecal, after 12 hours): normal; anaesthetic effect (25 micrograms intrathecal, after another 2 hours (following 4 hours stiffness and three hours without reaction)): 80 % MPE; reaction to pain stimuli (25 micrograms intrathecal, the three hours after the 4 hours of stiffness): did not react to any pain stimuli; analgesic effectiveness relative to morphine (administered intrathecally, morphine as reference compound): approximately a thousand times more effective; minimal dose at which analgesic activity was observed (intrathecal, rat): 0.005 micrograms
